Data reported in patent publication US20200308219A1.
No constants are given. Whether binding was seen depends on the method and setting. For part of these data: In cells and extracts the contact can be indirect. Some entries that bind do so weakly or less than the wild type. Tags and fused reporters may be left off the sequences shown.

Amino acid sequences for entries named in this document (tags omitted). Residues count along the entry.
UniProt P07996, residues 19-1170: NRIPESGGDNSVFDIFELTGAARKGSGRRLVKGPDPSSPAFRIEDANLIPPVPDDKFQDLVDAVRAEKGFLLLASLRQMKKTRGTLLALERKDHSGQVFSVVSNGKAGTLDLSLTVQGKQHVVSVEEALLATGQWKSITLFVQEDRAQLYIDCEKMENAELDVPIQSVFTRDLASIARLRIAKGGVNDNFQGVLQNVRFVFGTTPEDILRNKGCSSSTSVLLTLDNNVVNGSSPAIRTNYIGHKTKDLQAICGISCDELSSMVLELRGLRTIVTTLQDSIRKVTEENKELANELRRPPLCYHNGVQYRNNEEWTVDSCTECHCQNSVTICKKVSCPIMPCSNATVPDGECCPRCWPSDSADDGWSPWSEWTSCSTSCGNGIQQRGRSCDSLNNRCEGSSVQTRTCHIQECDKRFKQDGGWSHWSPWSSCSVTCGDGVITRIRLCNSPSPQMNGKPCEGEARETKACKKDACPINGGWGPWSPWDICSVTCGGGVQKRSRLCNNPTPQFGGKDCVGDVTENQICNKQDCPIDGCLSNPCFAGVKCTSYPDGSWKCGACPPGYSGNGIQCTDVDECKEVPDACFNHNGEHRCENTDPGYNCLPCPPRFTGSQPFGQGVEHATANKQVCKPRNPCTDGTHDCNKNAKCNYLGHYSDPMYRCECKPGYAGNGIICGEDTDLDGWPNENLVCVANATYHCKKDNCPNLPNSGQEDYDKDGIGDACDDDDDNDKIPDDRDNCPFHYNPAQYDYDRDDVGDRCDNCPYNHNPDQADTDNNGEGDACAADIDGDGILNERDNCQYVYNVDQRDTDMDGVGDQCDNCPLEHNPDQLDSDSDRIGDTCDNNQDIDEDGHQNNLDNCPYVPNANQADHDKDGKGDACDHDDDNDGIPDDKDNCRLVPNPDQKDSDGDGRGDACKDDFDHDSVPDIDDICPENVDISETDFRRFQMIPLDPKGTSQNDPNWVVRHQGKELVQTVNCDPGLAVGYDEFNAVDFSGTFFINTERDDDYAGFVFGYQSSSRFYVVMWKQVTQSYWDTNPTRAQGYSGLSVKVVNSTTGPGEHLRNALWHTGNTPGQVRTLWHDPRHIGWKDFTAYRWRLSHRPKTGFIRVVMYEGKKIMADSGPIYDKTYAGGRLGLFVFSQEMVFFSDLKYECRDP
UniProt P26022, residues 18-381: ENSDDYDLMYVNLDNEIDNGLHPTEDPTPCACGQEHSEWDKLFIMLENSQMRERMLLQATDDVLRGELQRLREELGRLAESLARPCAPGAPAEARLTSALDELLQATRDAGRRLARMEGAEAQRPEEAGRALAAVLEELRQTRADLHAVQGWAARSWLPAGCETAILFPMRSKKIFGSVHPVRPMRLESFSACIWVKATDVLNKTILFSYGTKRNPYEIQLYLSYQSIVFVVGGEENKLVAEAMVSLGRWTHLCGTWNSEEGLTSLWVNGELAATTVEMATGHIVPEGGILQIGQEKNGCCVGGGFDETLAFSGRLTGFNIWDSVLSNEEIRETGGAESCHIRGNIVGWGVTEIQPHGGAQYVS

Key:
[1] = target: T1, HC-HA complex purified from human amniotic membrane (PBS or GnHCl extract, by successive ultracentrifugation) (human) (UniProt P19827); assay: Western blot anti-TSP-1 of AM GnHCl extract with or without HAase; binding dissociated by GnHCl and CsCl
T1 sequence (ester-linked to hyaluronan (HA), looked up): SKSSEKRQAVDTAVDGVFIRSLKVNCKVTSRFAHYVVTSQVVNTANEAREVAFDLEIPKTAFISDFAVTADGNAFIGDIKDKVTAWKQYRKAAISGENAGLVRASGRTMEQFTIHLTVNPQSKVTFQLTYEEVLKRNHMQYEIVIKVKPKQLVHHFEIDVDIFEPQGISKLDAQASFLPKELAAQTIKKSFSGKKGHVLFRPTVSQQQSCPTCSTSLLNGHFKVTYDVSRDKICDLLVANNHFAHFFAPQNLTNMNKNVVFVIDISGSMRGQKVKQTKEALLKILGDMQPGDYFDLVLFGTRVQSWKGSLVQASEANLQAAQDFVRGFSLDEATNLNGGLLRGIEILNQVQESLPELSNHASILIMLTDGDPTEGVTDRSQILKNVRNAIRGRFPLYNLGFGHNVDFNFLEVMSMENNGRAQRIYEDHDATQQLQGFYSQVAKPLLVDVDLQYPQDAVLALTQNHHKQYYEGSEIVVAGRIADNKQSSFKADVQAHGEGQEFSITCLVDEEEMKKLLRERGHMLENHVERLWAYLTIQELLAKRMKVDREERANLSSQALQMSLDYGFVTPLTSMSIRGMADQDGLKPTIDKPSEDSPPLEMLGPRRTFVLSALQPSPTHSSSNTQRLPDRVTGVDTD

[2] = target: T2, HC-HA complex purified from human umbilical cord (PBS or GnHCl extract, 4th ultracentrifugation) (human) (UniProt P19827); assay: Western blot anti-PTX3 of UC GnHCl HC-HA after HAase, keratinase, chondroitinase
T2 sequence (ester-linked to hyaluronan (HA), looked up): T1 sequence (ester-linked to hyaluronan (HA), looked up)

[3] = target: T1, HC-HA complex purified from human amniotic membrane (PBS or GnHCl extract, by successive ultracentrifugation) (human); assay: agarose gel of PBS and GnHCl HC-HA compared with PTX3 Western blot
[4] = target: T1, HC-HA complex purified from human amniotic membrane (PBS or GnHCl extract, by successive ultracentrifugation) (human); assay: co-purification; Western blot anti-PTX3 of AM 2nd and 4th HC-HA with or without HAase
[5] = target: T2, HC-HA complex purified from human umbilical cord (PBS or GnHCl extract, 4th ultracentrifugation) (human); assay: Western blot anti-PTX3 of 4th UC HC-HA, sample buffer with or without 2-ME
[6] = target: T1, HC-HA complex purified from human amniotic membrane (PBS or GnHCl extract, by successive ultracentrifugation) (human); assay: Western blot anti-PTX3 of AM extract and HC-HA with or without NaOH
[7] = target: T1, HC-HA complex purified from human amniotic membrane (PBS or GnHCl extract, by successive ultracentrifugation) (human); assay: co-purification through 1-4 CsCl/GnHCl ultracentrifugations; Western blot anti-PTX3 with or without HAase
[8] = target: T1, HC-HA complex purified from human amniotic membrane (PBS or GnHCl extract, by successive ultracentrifugation) (human); assay: co-purification; Western blot anti-osteoadherin
[9] = target: T2, HC-HA complex purified from human umbilical cord (PBS or GnHCl extract, 4th ultracentrifugation) (human); assay: Western blot anti-bikunin of UC GnHCl HC-HA with chondroitinase

With “thrombospondin-1 (TSP-1) of human amniotic membrane (GnHCl extract) (from UniProt P07996 19-1170)” as the molecule, how does the binding [1] read?
The binding was “binds”.

“native PTX3 of human amniotic membrane and umbilical cord (as found in extracts and purified HC-HA complexes) (from UniProt P26022 18-381)” was tested. Which binding [2] did it give?
The binding was “binds”.

And the binding [3]?
The binding was “binds”.

What about the binding [4] of the same molecule?
The binding was “binds”.

What about the binding [5] of the same molecule?
The binding was “binds”.

And the binding [6]?
Its binding is “binds”.

And the binding [7]?
Its binding is “binds”.

B1: non-keratan sulfate osteoadherin of human amniotic membrane (in AM GnHCl HC-HA) (protein, UniProt Q99983 21-421, looked up)
chain: QYETYQWDEDYDQEPDDDYQTGFPFRQNVDYGVPFHQYTLGCVSECFCPTNFPSSMYCDNRKLKTIPNIPMHIQQLYLQFNEIEAVTANSFINATHLKEINLSHNKIKSQKIDYGVFAKLPNLLQLHLEHNNLEEFPFPLPKSLERLLLGYNEISKLQTNAMDGLVNLTMLDLCYNYLHDSLLKDKIFAKMEKLMQLNLCSNRLESMPPGLPSSLMYLSLENNSISSIPEKYFDKLPKLHTLRMSHNKLQDIPYNIFNLPNIVELSVGHNKLKQAFYIPRNLEHLYLQNNEIEKMNLTVMCPSIDPLHYHHLTYIRVDQNKLKEPISSYIFFCFPHIHTIYYGEQRSTNGQTIQLKTQVFRRFPDDDDESEDHDDPDNAHESPEQEGAEGHFDLHYYENQE
Which binding [8] does the source give for B1 here?
Its binding is “binds”.

B2: bikunin of human umbilical cord (in UC GnHCl HC-HA) (protein, UniProt P02760 206-352, looked up)
chain: AVLPQEEEGSGGGQLVTEVTKKEDSCQLGYSAGPCMGMTSRYFYNGTSMACETFQYGGCMGNGNNFVTEKECLQTCRTVAACNLPIVRGPCRAFIQLWAFDAVKGKCVLFPYGGCQGNGNKFYSEKECREYCGVPGDGDEELLRFSN
modifications: carries chondroitin sulfate (35 kDa; 25 kDa core after chondroitinase)
How did the binding [9] turn out when B2 was run?
The binding was “binds”.
